Measured values taken from patent US20050064384A1, “Recruitment of mst1 or mst2 protein kinase to induce apoptosis in eukaryotic cells” (priority 2001, published 2005).
At least one structure is not confirmed: it was looked up by name or label, or the drawing left a doubt. Peptide text beside a SMILES is read from it. * marks the point of attachment. Cbz = O=C(OCc1ccccc1)*; CH2F = FC*

Tested on: HEK293 cells
Assay: Apoptosis assay in HEK293 cells (trypan blue exclusion)
Assay type: cell-based
Conditions: preincubation with zVAD-FMK, data not shown
Procedure: Transient transfections were performed using LIPOFECTAMINE™ transfection reagent (Gibco BRL, Gaithersburg, Md.) according to the manufacturer's instructions. […] Each well was transfected with a total of 0.5 μg DNA and 3.5 μl LIPOFECTAMINE™ transfection reagent.

## COC(=O)C[C@H](NC(=O)[C@H](C)NC(=O)[C@@H](NC(=O)OCc1ccccc1)C(C)C)C(=O)CF [zVAD-FMK] (Cbz-Val-Ala-Asp(OMe)-CH2F)
  inhibition of cell death elicited by Ki-RasG12V and Ha-RasG12V, E37G: inhibited
